In PubChem BioAssay AID493014 (National Center for Advancing Translational Sciences (NCATS), 2011):
Some of the results follow. These are further read-outs of the screen, such as a control signal, another cell line or another target. No call is given for them. Most of these compounds were active or inconclusive in the main read-out, so they are no random draw. The note in brackets gives the kind of curve behind each potency; many fits are weak.

Assay: qHTS Assay to Find Inhibitors of Chronic Active B-Cell Receptor Signaling
Conditions: ABC-DLBCL IkBa-CBG/CBR reporter, luminescence ratio (green luciferase fused to IkBa over red control in TMD8 lymphoma cells), 4 h
Procedure, shortened: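 TMD8 ABC-DLBCL cells carrying doxycycline-inducible green luciferase fused to IkappaBalpha plus unfused red luciferase were exposed to compounds (up to 46 uM) for 4 hrs at 37C. Activity came from the overlap-corrected green/red luminescence ratio.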

[1] = measured here: CBR red luminescence, cell number

SMILES | AC50 [1] | AC50 (measured here: IkBa-CBG green luminescence)
COc1ccc(/C=N/Nc2nc3ccccc3s2)cc1O | 12.6 µM [falling, partial curve, poor fit] | 
O=C1c2ccccc2C(=O)N1CCC(c1ccccc1)c1ccco1 (configuration not stated) | 13 µM [falling, partial curve, poor fit] | 
Cc1ccccc1-c1cn(-c2ccccc2)c(=S)[nH]1 | 6.31 µM [falling, full curve] | 
O=C(Nc1ccc(OC(F)(F)F)cc1)c1cccc(-n2cnnn2)c1 | 10.3 µM [rising, partial curve] | 
Cc1ccc(NC(=O)[C@H](NC(=O)[C@@H]2Cc3ccccc3CN2)c2ccccc2)cc1 | 35.5 µM [falling, single point] | 
O=C(NC1CCCC1)C1CC(=O)N(c2ccc(F)cc2)C1 (configuration not stated) | 4.47 µM [falling, full curve, poor fit] | 
Cc1ccc(N2CCCC2=O)cc1S(=O)(=O)N1CCOCC1 | 35.5 µM [rising, single point] | 
Cn1c(=S)c2[nH]c(SCCN3CCCC3)nc2n(C)c1=O |  | 10 µM [falling, partial curve]
O=C(Nc1ccccc1N1CCCCC1)c1ncoc1-c1ccc(F)cc1 | 5.17 µM [rising, full curve] | 
O=C(Nc1ccc(Cl)cc1)/C(=C/c1cccc(O)c1)c1nc2ccccc2s1 | 29.1 µM [falling, single point] | 
CCc1c(O)nc(SCC(=O)Nc2nc3ccccc3s2)n(-c2ccc(C)cc2)c1=O | 0.447 µM [falling, full curve, poor fit] | 
COC(=O)c1cn(C(C)C(=O)NCc2ccco2)c2ccccc12 (configuration not stated) | 14.6 µM [falling, partial curve, poor fit] | 
CCOC(=O)c1cc(-c2ccc(OC)cc2)nc2c1c(C)nn2CCC#N | 20.6 µM [rising, single point] | 
C/C(=N\NC(=O)c1nn(C)cc1Br)c1cccc(NC(=O)C(C)(C)C)c1 | 25.1 µM [falling, partial curve, poor fit] | 
CC(=O)N(C)C1(c2nnnn2CCOC(=O)Nc2ccc(Cl)cc2)CCCCC1 | 13 µM [rising, partial curve, poor fit] | 
CC(Sc1ccccc1)C(=O)N1CCN(S(=O)(=O)c2cccc(Br)c2)CC1 (configuration not stated) | 35.5 µM [falling, single point] | 
Cc1ccc(NC(=O)NNC(=O)c2cccs2)cc1 | 16.4 µM [falling, partial curve] | 
O=C(Nc1cccc(NC(=O)c2nccc3ccccc23)c1)c1ccco1 | 7.08 µM [falling, partial curve, poor fit] | 
Cn1c(=O)oc2cc(S(=O)(=O)NCCC(=O)NCCc3ccc(Cl)cc3)ccc21 | 6.51 µM [falling, full curve] | 
NS(=O)(=O)c1ccc(CCNc2ncnc3c2c(-c2ccccc2)cn3-c2ccc(F)cc2)cc1 | 29.1 µM [falling, single point] | 
CSc1nnc(-c2cccc(C)c2)n1N | 4.61 µM [rising, single point] | 

SMILES | AC50 [1] | AC50 (measured here: IkBa-CBG green luminescence)
O=C(O)c1ccc2nc(-c3ccccc3)c(-c3ccccc3)nc2c1 | 8.2 µM [falling, partial curve] | 
O=C(CSc1ccc2ccccc2n1)Nc1ccc(N2CCOCC2)cc1 | 2.24 µM [rising, full curve, poor fit] | 
O=[N+]([O-])c1cc(Cl)ccc1Nc1ccccc1 | 31.6 µM [rising, single point] | 
O=C(NCCOc1ccccc1)C1=CC=CN2CCS(=O)(=O)N=C12 | 16.4 µM [rising, single point] | 
O=C(c1ccco1)N1CCN(C2CC(=O)N(c3ccc4c(c3)OCO4)C2=O)CC1 (configuration not stated) | 29.1 µM [rising, single point] | 
CCOc1ccc(-n2c(N)c(-c3nc4ccccc4[nH]3)sc2=S)cc1 | 10.3 µM [falling, partial curve] | 
CCOC(=O)c1[nH]c2ccc(OC)cc2c1NC(=O)c1nonc1C | 0.562 µM [rising, full curve, poor fit] | 
CCOC(=O)c1sc(NC(=O)CCc2ccc(OC)cc2)nc1C | 0.501 µM [falling, full curve, poor fit] | 
O=C(CSCc1ccc(Cl)cc1)Nc1ccc(Br)cc1C(=O)O | 4.47 µM [falling, full curve, poor fit] | 
O=S(=O)(c1ccc(F)cc1)c1nc(-c2ccco2)oc1Nc1ccccc1 | 16.4 µM [falling, partial curve] | 
Cn1c(NC(=O)/C=C/c2ccc(Cl)c(Cl)c2)cc(=O)n(C)c1=O | 29.1 µM [rising, partial curve, poor fit] | 
CC(=O)Oc1ccc(-c2csc(Nc3ccc(Cl)cn3)n2)cc1 | 6.31 µM [falling, full curve] | 
CCOc1ccc(NC(=O)Cn2nc(C(N)=O)c3ccccc3c2=O)cc1S(=O)(=O)N1CCCC1 | 3.66 µM [falling, full curve] | 
CCCN1CCN(C(=O)c2nn(-c3ccc(OC)cc3)c(=O)c3c2c2ccccc2n3C)CC1 | 0.708 µM [falling, partial curve, poor fit] | 
O=C1Nc2ccccc2Nc2ncccc21 | 17.8 µM [falling, single point] | 
COc1ccc(CN2CC(=O)N(c3ccc(Cl)cc3)C2=S)cc1OC | 20 µM [rising, partial curve, poor fit] | 
O=C(/C=C/c1ccc(OCc2c(F)cccc2Cl)cc1)N1CCOCC1 | 22.4 µM [falling, partial curve] | 
CCOc1cccc(C(=O)Nc2ccc3[nH]ncc3c2)c1 | 3.16 µM [falling, full curve] | 
CCC1CCCCN1CCCNC(=O)c1ccc(/C=C2/Sc3ccccc3NC2=O)cc1 (configuration not stated) | 4.47 µM [falling, partial curve, poor fit] | 
N#Cc1ccccc1OCC(=O)N(C1CCCCC1)C1CCS(=O)(=O)C1 (configuration not stated) | 7.31 µM [falling, partial curve] | 
NC(=O)C1CCN(c2oc(-c3ccccc3F)nc2S(=O)(=O)c2ccc(Cl)cc2)CC1 | 29.1 µM [rising, single point] | 

Part of the list above, set out differently:
SMILES,AC50 [1],AC50 (measured here: IkBa-CBG green luminescence)
CCOc1ccc(-n2c(N)c(-c3nc4ccccc4[nH]3)sc2=S)cc1,"10.3 µM [falling, partial curve]",
CCOC(=O)c1[nH]c2ccc(OC)cc2c1NC(=O)c1nonc1C,"0.562 µM [rising, full curve, poor fit]",
